PubChem BioAssay AID504793, Drosophila RNAi Screening Center | 2011
In all, the deposit lists about 23,000 reagents; this is an unselected part of those that have a named target and a result. In the full data, 62 (0.27%) got an active call. 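Calls come from follow-up tests whose scores are not deposited, so confirmed genes may have low counts here; counts are not normalised per plate.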 Raw values vary from plate to plate and are shown uncorrected. Names joined by + are all predicted targets of the reagent. No sequences are given here.

Screen: 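Knock-downs allowing continued mitosis even though DNA is damaged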 (primary screen)
System: Drosophila S2R+ cells
Knock-down reagent: long dsRNA against Drosophila genes, about 0.25 µg dsRNA per well
Timing: 4 days of dsRNA, then 4 hours of drug before read-out
Conditions: doxorubicin 0.5 µM for 4 hours to cause double-strand breaks, in cells also given a low, harmless dose of dsRNA against nbs to sensitise the assay
Detection: 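Per-well count of mitotic cells stained for phospho-histone H3 after doxorubicin exposure, used as mitotic index; counts are raw and not normalised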
Scale: mitotic cells: higher = more cells in mitosis, weaker G2 arrest
Hit rule: 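Genes are called active only when high mitotic counts were reproduced with independent dsRNAs and mitosis was checked for delay without damage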
Calls: active = confirmed in follow-up tests; inactive = not confirmed

target gene,dsRNA,"mitotic cells, replicate 1","mitotic cells, replicate 2",Call
CngB,DRSC04297,6,,inactive
ACXC,DRSC00846,5,,inactive
MED28,DRSC15721,18,,inactive
CG1722,DRSC20547,1,,inactive
CG16896,DRSC04284,8,,inactive
Sap130,DRSC09680,9,,inactive
Sap130,DRSC28079,5,,inactive
CG33158,DRSC09708,12,,inactive
CG33158,DRSC09709,9,,inactive
CG33158,DRSC10438,4,,inactive
mre11,DRSC03570,9,,inactive
mre11,DRSC22628,7,,inactive
mre11,DRSC26311,5,,inactive
Mlc-c,DRSC18683,7,,inactive
Mlc-c,DRSC26543,9,,inactive
iav,DRSC18363,12,,inactive
iav,DRSC25119,4,,inactive
mew,DRSC18971,8,,inactive
mew,DRSC20352,17,,inactive
Vamp7,DRSC06599,5,,inactive
CG10752,DRSC09799,8,,inactive
Stlk,DRSC22687,1,,inactive
Srlp,DRSC15890,,,inactive
ago,DRSC08463,4,,inactive
Rhp,DRSC20279,14,,inactive
ZC3H3,DRSC10696,6,,inactive
ZC3H3,DRSC28763,4,,inactive
snRNA:U1:95Cc + snRNA:U1:95Cb,DRSC13641,10,,inactive
mip120,DRSC06960,11,,inactive
mip120,DRSC29182,6,,inactive
CecC,DRSC16606,9,,inactive
CG2211,DRSC08559,6,,inactive
CG43999,DRSC14605,7,,inactive
Poc1,DRSC09713,2,,inactive
Poc1,DRSC28330,3,,inactive
NK7.1,DRSC25000,7,,inactive
Egfrap,DRSC09963,7,,inactive
Egfrap,DRSC09964,6,,inactive
Egfrap,DRSC25261,5,,inactive
CG34174,DRSC00101,7,,inactive
CG6094,DRSC02927,8,,inactive
CG6094,DRSC22705,8,,inactive
CG6094,DRSC29084,2,,inactive
Obp51a,DRSC22412,8,,inactive
Cap-H2,DRSC14908,9,,inactive
CG11426,DRSC11658,6,,inactive
CG11426,DRSC27815,3,,inactive
CG31068,DRSC13820,11,,inactive
CG10700,DRSC02096,2,,inactive
CheB42b,DRSC22878,8,,inactive
Cpr56F,DRSC07326,7,,inactive
Cpr56F,DRSC24002,5,,inactive
Rpn6,DRSC07541,29,,inactive
CG30026,DRSC05276,11,,inactive
CG30026,DRSC29320,4,,inactive
CG8578,DRSC20114,5,,inactive
CG13705,DRSC08314,5,,inactive
CG13705,DRSC22691,14,,inactive
CG13705,DRSC25173,6,,inactive
CG4975 + CG4984,DRSC24817,5,,inactive
CG17780,DRSC15265,17,,inactive
CG4318,DRSC19887,10,,inactive
msd1,DRSC08383,38,,inactive
Obp47b + CG7741,DRSC06330,7,,inactive
Obp47b + CG7741,DRSC27574,4,,inactive
CG5078,DRSC11762,5,,inactive
Nlp,DRSC16759,12,,inactive
Nlp,DRSC26421,4,,inactive
CG30349,DRSC06421,6,,inactive
CG30349,DRSC06839,6,,inactive
CG30349,DRSC28739,6,,inactive
CG15764,DRSC18070,10,,inactive
CG15764,DRSC25755,3,,inactive
Acsx1R + Acsx1L,DRSC24222,8,,inactive
lilli,DRSC00708,2,9,inactive
CG13810,DRSC08344,5,,inactive
CG13810,DRSC22838,6,,inactive
CG13810,DRSC27859,3,,inactive
CG5026,DRSC10470,7,,inactive
CG7728,DRSC10907,3,,inactive
CG7728,DRSC28948,7,,inactive
Rlip,DRSC16828,4,,inactive
Ccp84Ag,DRSC12592,6,,inactive
Ccp84Ag,DRSC22085,7,,inactive
Ccp84Ag,DRSC30073,2,,inactive
CG31468,DRSC13637,53,,inactive
Mvk + CG33672 + spt4,DRSC05356,7,,inactive
Mvk + CG33672 + spt4,DRSC06628,16,,inactive
Rpp20 + CG33932,DRSC19467,5,,inactive
ACXB,DRSC00845,8,,inactive
ACXB,DRSC26343,7,,inactive
Obsc,DRSC04301,5,,inactive
Obsc,DRSC04302,5,,inactive
Obsc,DRSC04303,6,,inactive
Obsc,DRSC04430,7,,inactive
Obsc,DRSC22422,5,,inactive
RluA-1,DRSC02240,11,,inactive
RluA-1,DRSC03060,5,,inactive
mRpL47,DRSC16827,3,,inactive
I-t,DRSC16713,3,,inactive
Vmat,DRSC06961,3,,inactive
Vmat,DRSC06962,6,,inactive
Vmat,DRSC22223,16,,inactive
CAH14,DRSC04234,4,,inactive
CAH14,DRSC22160,18,,inactive
Mst36Fb,DRSC28786,1,,inactive
CG32267,DRSC21561,8,,inactive
CG32267,DRSC27104,8,,inactive
CysRS,DRSC05948,10,,inactive
CysRS,DRSC26620,4,,inactive

Part of the list above, reformatted:
CG15764 [DRSC25755]: mitotic cells, replicate 1 = 3; Call = inactive
Acsx1R + Acsx1L [DRSC24222]: mitotic cells, replicate 1 = 8; Call = inactive
lilli [DRSC00708]: mitotic cells, replicate 1 = 2; mitotic cells, replicate 2 = 9; Call = inactive
CG13810 [DRSC08344]: mitotic cells, replicate 1 = 5; Call = inactive
CG13810 [DRSC22838]: mitotic cells, replicate 1 = 6; Call = inactive
CG13810 [DRSC27859]: mitotic cells, replicate 1 = 3; Call = inactive
CG5026 [DRSC10470]: mitotic cells, replicate 1 = 7; Call = inactive
CG7728 [DRSC10907]: mitotic cells, replicate 1 = 3; Call = inactive
CG7728 [DRSC28948]: mitotic cells, replicate 1 = 7; Call = inactive
Rlip [DRSC16828]: mitotic cells, replicate 1 = 4; Call = inactive
Ccp84Ag [DRSC12592]: mitotic cells, replicate 1 = 6; Call = inactive
Ccp84Ag [DRSC22085]: mitotic cells, replicate 1 = 7; Call = inactive
